# Test: Identification and label-free relative LC-MS quantitation of HLA-presented peptides on tumor and normal tissue samples (XPRESIDENT presentation profiles)
# Parameters: species or system human
# Details: for Additional entities of particular interest (presentation of selected peptides across entities): tumor entities on which the HLA-presented peptide was found, entity abbreviations defined in the title of Table 4B; for Entities of particular interest: entities where the peptide was over-presented on cancer samples compared to normal tissues
Substance,Additional entities of particular interest (presentation of selected peptides across entities),Entities of particular interest
185 (TLYQGLPAEV; listed as Homo sapiens) [compound 185],"GC, NSCLC, HCC, OSCAR, OC, UBC, UTC, BRCA, RCC, CRC",–
187 (SILKEDPFL; listed as Homo sapiens) [compound 187],NSCLC,–
188 (VLGEEQEGV; listed as Homo sapiens) [compound 188],NSCLC,–
190 (SLSTELFKV; listed as Homo sapiens) [compound 190],HCC,–
191 (AAIEIFEKV; listed as Homo sapiens) [compound 191],–,"NSCLC, OSCAR, OC"
192 (TLLPSSGLVTL; listed as Homo sapiens) [compound 192],BRCA,–
193 (ALFHMNILL; listed as Homo sapiens) [compound 193],NSCLC,–
194 (KLLEEVQLL; listed as Homo sapiens) [compound 194],NSCLC,–
195 (VIIQNLPAL; listed as Homo sapiens) [compound 195],CRC,–
196 (TLHQWIYYL; listed as Homo sapiens) [compound 196],CRC,–
200 (IMPTFDLTKV; listed as Homo sapiens) [compound 200],HCC,–
201 (LLFSLLCEA; listed as Homo sapiens) [compound 201],BPH,–
203 (FLFVDPELV; listed as Homo sapiens) [compound 203],"CRC, AML, NHL","NSCLC, GC, OC"
204 (SEWGSPHAAVP; listed as Homo sapiens) [compound 204],PPC,–
205 (LAFGYDDEL; listed as Homo sapiens) [compound 205],HCC,–
206 (GLDAFRIFL; listed as Homo sapiens) [compound 206],CRC,–
208 (HLNNDRNPL; listed as Homo sapiens) [compound 208],BPH,–
210: peptide found in SLC22A2 (gene looked up) (GLAGDNIYL; listed as Homo sapiens) [compound 210],RCC,–
211 (LLTTVLINA; listed as Homo sapiens) [compound 211],RCC,–
212 (MTLSEIHAV; listed as Homo sapiens) [compound 212],CRC,–
213 (ILAVDGVLSV; listed as Homo sapiens) [compound 213],"NSCLC, BRCA, MEL",–
214 (ALFETLIQL; listed as Homo sapiens) [compound 214],HCC,–
215 (QIADIVTSV; listed as Homo sapiens) [compound 215],HCC,–
216 (ALSTVTPRI; listed as Homo sapiens) [compound 216],HCC,–
217 (LLWPSSVPA; listed as Homo sapiens) [compound 217],"GB, MEL, AML",–
220 (ALSELERVL; listed as Homo sapiens) [compound 220],"BPH, UTC",–
221 (IMLNSVEEI; listed as Homo sapiens) [compound 221],"BPH, NHL",–
222 (LLTGVFAQL; listed as Homo sapiens) [compound 222],"CLL, UTC, BRCA, CRC, NHL",–

Substance,Additional entities of particular interest (presentation of selected peptides across entities),Entities of particular interest
223 (ALHPVQFYL; listed as Homo sapiens) [compound 223],"OC, CRC",–
224 (LLFDWSGTGRADA; listed as Homo sapiens) [compound 224],GBC_CCC,–
225 (FLPQPVPLSV; listed as Homo sapiens) [compound 225],"CLL, MEL, NHL",–
227 (SEMEELPSV; listed as Homo sapiens) [compound 227],HCC,–
228 (SLLELDGINLRL; listed as Homo sapiens) [compound 228],NSCLC,–
229 (YLYELEHAL; listed as Homo sapiens) [compound 229],–,"NSCLC, OC"
230 (KLLNMIFSI; listed as Homo sapiens) [compound 230],BPH,–
231 (LLDDIFIRL; listed as Homo sapiens) [compound 231],MEL,–
233 (SLFESLEYL; listed as Homo sapiens) [compound 233],"UTC, RCC","NSCLC, OSCAR, OC"
236 (KMSELQTYV; listed as Homo sapiens) [compound 236],"GC, BPH, CLL, OSCAR, SCLC, UBC, UTC, BRCA, GBC_CCC, RCC, AML, NHL","GB, NSCLC, HCC, OC, MEL, CRC, PC"
237 (ALLEQTGDMSL; listed as Homo sapiens) [compound 237],"SCLC, UBC, BRCA, AML, NHL","NSCLC, OC, MEL, CRC"
238 (HLQEKLQSL; listed as Homo sapiens) [compound 238],HCC,–
241 (KQFEGTVEI; listed as Homo sapiens) [compound 241],"CLL, NHL","NSCLC, MCC, OC, CRC, PC, OSCAR"
243 (GLAEFQENV; listed as Homo sapiens) [compound 243],"CLL, SCLC, UBC, UTC, BRCA, GBC_CCC, MEL, AML, NHL","GB, NSCLC, HCC, OC, CRC, PC, OSCAR"
244 (NVAEIVIHI; listed as Homo sapiens) [compound 244],–,"GC, NSCLC"
251 (LLWGNLPEI; listed as Homo sapiens) [compound 251],"CLL, SCLC, UTC, GBC_CCC, AML, NHL","NSCLC, MEL, CRC, PC, OC"
254 (ALGDKFLLRV; listed as Homo sapiens) [compound 254],NHL,"NSCLC, HCC, MEL, OC"
255 (FLMKNSDLYGA; listed as Homo sapiens) [compound 255],"UBC, UTC, GBC_CCC, AML, NHL","NSCLC, HCC, MEL, PC, OSCAR"
256 (FLNDIFERI; listed as Homo sapiens) [compound 256],"UTC, MEL, AML, NHL","NSCLC, HCC, CLL, OC"
257 (KLIDHQGLYL; listed as Homo sapiens) [compound 257],–,"NSCLC, OC, CRC, OSCAR"
258 (QLVQRVASV; listed as Homo sapiens) [compound 258],"UBC, NHL","NSCLC, OC"
259 (GPGIFPPPPPQP; listed as Homo sapiens) [compound 259],–,"NSCLC, BPH, OSCAR, OC"
260 (ALNESLVEC; listed as Homo sapiens) [compound 260],"SCLC, UBC, UTC, CRC, AML, NHL","NSCLC, MEL, OSCAR, OC"
261 (GLAALAVHL; listed as Homo sapiens) [compound 261],"GC, CLL, SCLC, UBC, UTC, BRCA, GBC_CCC, AML, NHL","NSCLC, OC, MEL, CRC, PC, OSCAR"
262 (LLLEAVWHL; listed as Homo sapiens) [compound 262],"BRCA, NHL","NSCLC, CRC"
263 (SIIEYLPTL; listed as Homo sapiens) [compound 263],"CLL, OSCAR, OC, SCLC, UBC, GBC_CCC, AML, NHL","NSCLC, MEL, PC"
265 (FLLDKPQDLSI; listed as Homo sapiens) [compound 265],GBC_CCC,"NSCLC, OC, RCC"

# — patent publication US20160279215A1, “NOVEL PEPTIDES AND COMBINATION OF PEPTIDES FOR USE IN IMMUNOTHERAPY AGAINST VARIOUS TUMORS” (immatics biotechnologies GmbH, priority 2015, published 2016)
